The source of these data is article doi:10.1101/680967.

The chains behind the UniProt entries cited, without tags or fusion partners.
UniProt P49327: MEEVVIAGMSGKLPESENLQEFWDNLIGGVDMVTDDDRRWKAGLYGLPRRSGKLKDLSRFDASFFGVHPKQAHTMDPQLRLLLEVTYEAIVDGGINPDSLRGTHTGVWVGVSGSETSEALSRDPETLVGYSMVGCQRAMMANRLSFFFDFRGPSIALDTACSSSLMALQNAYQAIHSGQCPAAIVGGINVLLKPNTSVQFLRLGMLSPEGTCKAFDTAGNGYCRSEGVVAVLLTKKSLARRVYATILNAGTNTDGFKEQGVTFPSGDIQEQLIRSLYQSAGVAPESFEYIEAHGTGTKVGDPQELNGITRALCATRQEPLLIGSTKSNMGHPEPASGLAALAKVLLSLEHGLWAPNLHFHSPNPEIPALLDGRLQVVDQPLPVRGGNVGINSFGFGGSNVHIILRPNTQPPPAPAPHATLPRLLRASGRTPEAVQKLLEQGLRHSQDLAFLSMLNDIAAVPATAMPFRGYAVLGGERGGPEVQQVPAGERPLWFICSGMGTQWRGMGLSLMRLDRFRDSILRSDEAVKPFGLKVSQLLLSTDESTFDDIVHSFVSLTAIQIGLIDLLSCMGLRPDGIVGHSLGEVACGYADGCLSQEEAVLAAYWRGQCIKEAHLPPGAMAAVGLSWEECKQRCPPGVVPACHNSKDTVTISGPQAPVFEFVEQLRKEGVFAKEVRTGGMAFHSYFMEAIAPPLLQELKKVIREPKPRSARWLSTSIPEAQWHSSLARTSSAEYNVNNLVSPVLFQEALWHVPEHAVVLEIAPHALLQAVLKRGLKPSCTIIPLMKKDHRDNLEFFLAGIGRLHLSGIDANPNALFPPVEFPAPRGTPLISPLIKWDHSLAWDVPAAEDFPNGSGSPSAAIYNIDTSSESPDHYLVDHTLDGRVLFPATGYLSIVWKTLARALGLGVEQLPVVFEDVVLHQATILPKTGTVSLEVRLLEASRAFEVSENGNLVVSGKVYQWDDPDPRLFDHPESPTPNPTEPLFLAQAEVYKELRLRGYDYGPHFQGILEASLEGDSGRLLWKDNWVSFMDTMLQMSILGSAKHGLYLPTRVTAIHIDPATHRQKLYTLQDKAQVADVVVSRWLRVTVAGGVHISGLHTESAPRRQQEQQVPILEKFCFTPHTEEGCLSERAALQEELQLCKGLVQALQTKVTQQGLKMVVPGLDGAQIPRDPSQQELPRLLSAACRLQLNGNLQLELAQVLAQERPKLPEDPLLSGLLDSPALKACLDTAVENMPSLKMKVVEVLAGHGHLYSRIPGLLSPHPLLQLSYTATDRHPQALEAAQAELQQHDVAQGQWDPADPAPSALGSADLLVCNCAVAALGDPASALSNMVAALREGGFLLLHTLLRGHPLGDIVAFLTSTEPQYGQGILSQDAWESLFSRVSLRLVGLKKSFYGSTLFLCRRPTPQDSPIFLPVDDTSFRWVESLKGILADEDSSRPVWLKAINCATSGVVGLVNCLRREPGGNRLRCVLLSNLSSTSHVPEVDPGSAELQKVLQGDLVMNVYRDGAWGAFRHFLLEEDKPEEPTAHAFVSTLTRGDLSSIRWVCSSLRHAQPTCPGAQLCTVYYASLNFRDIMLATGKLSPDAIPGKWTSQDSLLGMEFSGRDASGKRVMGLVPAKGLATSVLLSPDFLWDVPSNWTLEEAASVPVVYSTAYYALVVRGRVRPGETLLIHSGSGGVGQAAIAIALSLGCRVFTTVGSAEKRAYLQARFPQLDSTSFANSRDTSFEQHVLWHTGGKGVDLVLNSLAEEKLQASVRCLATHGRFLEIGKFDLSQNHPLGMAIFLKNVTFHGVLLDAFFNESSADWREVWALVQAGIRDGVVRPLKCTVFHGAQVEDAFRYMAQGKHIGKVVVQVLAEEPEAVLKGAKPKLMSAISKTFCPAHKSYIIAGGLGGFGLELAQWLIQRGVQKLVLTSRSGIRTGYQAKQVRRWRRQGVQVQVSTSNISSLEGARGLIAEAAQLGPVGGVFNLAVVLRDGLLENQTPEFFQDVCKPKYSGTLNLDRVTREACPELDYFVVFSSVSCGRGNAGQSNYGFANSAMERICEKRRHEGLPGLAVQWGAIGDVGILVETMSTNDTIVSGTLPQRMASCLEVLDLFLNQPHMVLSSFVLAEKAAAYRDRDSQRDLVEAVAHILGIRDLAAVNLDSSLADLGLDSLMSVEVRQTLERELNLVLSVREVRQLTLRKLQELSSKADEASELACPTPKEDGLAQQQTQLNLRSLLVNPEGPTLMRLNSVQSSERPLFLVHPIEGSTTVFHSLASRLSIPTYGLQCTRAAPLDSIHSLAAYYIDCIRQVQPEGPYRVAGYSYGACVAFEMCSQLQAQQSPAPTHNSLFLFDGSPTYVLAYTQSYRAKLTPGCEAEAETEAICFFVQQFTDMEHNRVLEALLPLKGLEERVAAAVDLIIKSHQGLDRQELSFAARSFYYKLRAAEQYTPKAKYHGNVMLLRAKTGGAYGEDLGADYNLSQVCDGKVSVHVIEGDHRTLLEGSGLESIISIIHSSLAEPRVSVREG

No constants are given. Whether binding was seen depends on the method and setting. In cells and extracts the contact can be indirect. Some binding calls cover weakened binding; strength is not graded here.

This experiment concerns the target FASN (fatty acid synthase) (human (endogenous in RKO and SW620)) (UniProt P49327). Nature of the experiment: co-IP.

B1: APOC2 (apolipoprotein C2), endogenous (protein, UniProt P02655 23-101)
chain: TQQPQQDEMPSPTFLTQVKESLSSYWESAKTAAQNLYEKTYLPAVDEKLRDLYSKSTAAMSTYTGIFTDQVLSVLKGEE
B1: the binding entry is on record as “binds”.
